PubChem BioAssay AID1259405 | NCATS – 2018
Purpose: 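Knock-downs that lift recombinant protein yield in hamster ovary cells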 (primary screen). Cells: Chinese hamster CHO-K1 ovary cells with stable secreted eGFP expression. Reagents: single siRNA against mouse genes, 0.8 pmol siRNA per well (2 µl of 400 nM stock). Time to read-out: 3 days. Measurement: 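Per-well intracellular GFP measured by laser scanning cytometry, plus viability from ATP luminescence, each relative to plate median of non-targeting control wells, in %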. Direction: GFP, % of control: higher = more GFP per well, higher productivity; viability (ATP), % of control: higher = more viable cells (more ATP). Call rule: 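a knock-down is called active if GFP reaches 120% or more of non-targeting control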.
In all, the deposit lists about 50,000 reagents; below is a part drawn at random. Of all reagents, about 4,000 (8%) were called active. 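Mouse siRNA library applied to hamster cells; one well for each siRNA.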 Reagents against one gene are numbered here.

Pfkp (phosphofructokinase, platelet) | GFP, % of control: 81.5; viability (ATP), % of control: 86.9; outcome: inactive
Hdhd3 (haloacid dehalogenase-like hydrolase domain containing 3) #1 | GFP, % of control: 69.8; viability (ATP), % of control: 73.9; outcome: inactive
Hdhd3 (haloacid dehalogenase-like hydrolase domain containing 3) #2 | GFP, % of control: 83.1; viability (ATP), % of control: 63.3; outcome: inactive
Hdhd3 (haloacid dehalogenase-like hydrolase domain containing 3) #3 | GFP, % of control: 38.3; viability (ATP), % of control: 53.2; outcome: inactive
Pwp1 (PWP1 homolog, endonuclein) #1 | GFP, % of control: 80.3; viability (ATP), % of control: 59.7; outcome: inactive
Pwp1 (PWP1 homolog, endonuclein) #2 | GFP, % of control: 104; viability (ATP), % of control: 58.3; outcome: inactive
Pwp1 (PWP1 homolog, endonuclein) #3 | GFP, % of control: 59.6; viability (ATP), % of control: 78.5; outcome: inactive
Spag6 (sperm associated antigen 6) #1 | GFP, % of control: 87.2; viability (ATP), % of control: 64.8; outcome: inactive
Spag6 (sperm associated antigen 6) #2 | GFP, % of control: 69.4; viability (ATP), % of control: 90.2; outcome: inactive
Spag6 (sperm associated antigen 6) #3 | GFP, % of control: 131; viability (ATP), % of control: 124; outcome: active
Cacna1h (calcium channel, voltage-dependent, T type, alpha 1H subunit) #1 | GFP, % of control: 99.9; viability (ATP), % of control: 107; outcome: inactive
Cacna1h (calcium channel, voltage-dependent, T type, alpha 1H subunit) #2 | GFP, % of control: 66.9; viability (ATP), % of control: 79.6; outcome: inactive
Cacna1h (calcium channel, voltage-dependent, T type, alpha 1H subunit) #3 | GFP, % of control: 74.5; viability (ATP), % of control: 88.1; outcome: inactive
Sub1 (SUB1 homolog, transcriptional regulator) #1 | GFP, % of control: 73.5; viability (ATP), % of control: 83; outcome: inactive
Sub1 (SUB1 homolog, transcriptional regulator) #2 | GFP, % of control: 83.1; viability (ATP), % of control: 100; outcome: inactive
E230016K23Rik (RIKEN cDNA E230016K23 gene) #1 | GFP, % of control: 89.4; viability (ATP), % of control: 113; outcome: inactive
E230016K23Rik (RIKEN cDNA E230016K23 gene) #2 | GFP, % of control: 87.7; viability (ATP), % of control: 106; outcome: inactive
E230016K23Rik (RIKEN cDNA E230016K23 gene) #3 | GFP, % of control: 58; viability (ATP), % of control: 38.5; outcome: inactive

Reagents above with an active call:
Spag6 (sperm associated antigen 6) #3 | GFP, % of control: 131; viability (ATP), % of control: 124; outcome: active

The list goes on:
Rapgef1 (Rap guanine nucleotide exchange factor (GEF) 1) #1 | GFP, % of control: 76.7; viability (ATP), % of control: 95.3; outcome: inactive
Rapgef1 (Rap guanine nucleotide exchange factor (GEF) 1) #2 | GFP, % of control: 56.2; viability (ATP), % of control: 64.2; outcome: inactive
Rapgef1 (Rap guanine nucleotide exchange factor (GEF) 1) #3 | GFP, % of control: 70.7; viability (ATP), % of control: 69.5; outcome: inactive
Vmn1r52 (vomeronasal 1 receptor 52) #1 | GFP, % of control: 54.7; viability (ATP), % of control: 56.4; outcome: inactive
Vmn1r52 (vomeronasal 1 receptor 52) #2 | GFP, % of control: 93.9; viability (ATP), % of control: 42.5; outcome: inactive
Vmn1r52 (vomeronasal 1 receptor 52) #3 | GFP, % of control: 59.5; viability (ATP), % of control: 69.4; outcome: inactive
Zbtb8b (zinc finger and BTB domain containing 8b) #1 | GFP, % of control: 46.3; viability (ATP), % of control: 48.4; outcome: inactive
Zbtb8b (zinc finger and BTB domain containing 8b) #2 | GFP, % of control: 66.3; viability (ATP), % of control: 69.5; outcome: inactive
Zbtb8b (zinc finger and BTB domain containing 8b) #3 | GFP, % of control: 70.9; viability (ATP), % of control: 99.4; outcome: inactive
